The results in this text go back to article PMC12489474, “New structural insights into the control of the retinoic acid receptors RAR/RXR by DNA, ligands, and transcriptional coregulators” (Nucleic Acids Research, 2025).

Results are given in words; binding and its absence hold for the method and conditions named. Some binding calls cover weakened binding; strength is not graded here.

In test [1] the target is T1, NCoRNID (nuclear receptor interaction domain of the Nuclear receptor CoRepressor) (UniProt Q60974).
T1 sequence: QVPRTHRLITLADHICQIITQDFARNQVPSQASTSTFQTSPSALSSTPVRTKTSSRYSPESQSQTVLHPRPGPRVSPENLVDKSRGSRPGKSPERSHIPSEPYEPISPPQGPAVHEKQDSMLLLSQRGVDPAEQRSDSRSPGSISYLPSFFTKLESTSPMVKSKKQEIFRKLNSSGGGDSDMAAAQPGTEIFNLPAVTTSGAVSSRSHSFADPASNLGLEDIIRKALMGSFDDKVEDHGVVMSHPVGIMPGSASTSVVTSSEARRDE
The test is described as follows: SEC-SAXS; RAR/RXR bound to DR0L, DR1, DR5 or IR0 with BMS493, without and with NCoRNID; Superdex 200 Increase 10/300 GL, 20 mM Tris–HCl pH 7.5, 75 mM NaCl, 75 mM KCl, 2 mM CHAPS, 4 mM MgCl2, 12 mM TCEP; 15°C; both purified. For orientation: SEC sorts molecules by how far they enter the pores of the column.

Test [2] has as its target T1, NCoRNID (nuclear receptor interaction domain of the Nuclear receptor CoRepressor). The test is described as follows: HDX-MS; RAR/RXR and RR–DNA (DR0, DR1, DR5, IR0) with and without NCoRNID, with BMS493; 4°C, 20 μM complex diluted 10-fold into deuterated buffer pD 7.5; 4 s to 10 800 s; RAR and RXR read as subunits of the heterodimer; both purified.

B1: RAR/RXR heterodimer (RARAΔABF with RXRAΔAB) (complex)
chain 1: PRIYKPCFVCQDKSSGYHYGVSACEGCKGFFRRSIQKNMVYTCHRDKNCIINKVTRNRCQYCRLQKCFDVGMSKESVRNDRNKKKKEAPKPECSESYTLTPEVGELIEKVRKAHQETFPALCQLGKYTTNNSSEQRVSLDIDLWDKFSELSTKCIIKTVEFAKQLPGFTTLTIADQITLLKAACLDILILRICTRYTPEQDTMTFSDGLTLNRTQMHNAGFGPLTDLVFAFANQLLPLEMDDAETGLLSAICLICGDRQDLEQPDKVDMLQEPLLEALKVYVRKRRPSRPHMFPKMLMKITDLRSISAKGAERVITLKMEIPGSMPPLIQEMLENSEGLD
chain 2: NMASFTKHICAICGDRSSGKHYGVYSCEGCKGFFKRTVRKDLTYTCRDNKDCLIDKRQRNRCQYCRYQKCLAMGMKREAVQEERQRGKDRNENEVESTSSANEDMPVERILEAELAVEPKTETYVEANMGLNPSSPNDPVTNICQAADKQLFTLVEWAKRIPHFSELPLDDQVILLRAGWNELLIASFSHRSIAVKDGILLATGLHVHRNSAHSAGVGAIFDRVLTELVSKMRDMQMDKTELGCLRAIVLFNPDSKGLSNPAEVEALREKVYASLEAYCKHKYPEQPGRFAKLLLRLPALRSIGLKCLEHLFFFKLIGDTPIDTFLMEMLEAPHQMT
notes: retinoic acid receptor alpha, residues 82-421 of Uniprot entry P11416; as the chain of m1; as the chain of m2; 1:1 heterodimer by SEC-MALS; this is told in the format of each assay; also called RR–DR0; source: E. coli BL21 (DE3); RAR and RXR purified separately, mixed (2-fold excess of RAR), heterodimer purified by SEC (Superdex 200); not shown: His6, N-terminal, cleaved
In the case of B1, the binding entry in test [1] and in test [2] was “binds” in each case.

B2: MmRARAΔABF (retinoic acid receptor alpha without the A/B and F domains) (domain or fragment, UniProt P11416 82-421, looked up)
chain: PRIYKPCFVCQDKSSGYHYGVSACEGCKGFFRRSIQKNMVYTCHRDKNCIINKVTRNRCQYCRLQKCFDVGMSKESVRNDRNKKKKEAPKPECSESYTLTPEVGELIEKVRKAHQETFPALCQLGKYTTNNSSEQRVSLDIDLWDKFSELSTKCIIKTVEFAKQLPGFTTLTIADQITLLKAACLDILILRICTRYTPEQDTMTFSDGLTLNRTQMHNAGFGPLTDLVFAFANQLLPLEMDDAETGLLSAICLICGDRQDLEQPDKVDMLQEPLLEALKVYVRKRRPSRPHMFPKMLMKITDLRSISAKGAERVITLKMEIPGSMPPLIQEMLENSEGLD
notes: retinoic acid receptor alpha, residues 82-421 of Uniprot entry P11416 (DBD, hinge and LBD; A/B and F domains removed); In the rows of this molecule it stood as a subunit of the RAR/RXR heterodimer; Vector pET15b; also called RARα; NR1B1; source: E. coli BL21 (DE3), purified (HisTrap HP)
B2: the binding entry in test [2] is on record as “binds”.
